Drawing on publication doi:10.1101/529222, this text covers binding for one molecule.

No constants are given. Whether binding was seen depends on the method and setting. Binding seen in cells or lysates may run through a third protein. Some binding calls cover weakened binding; strength is not graded here. Where a sequence is shown, tags or fusion partners need not be part of it.

This test has as its target T1, Myc-TRIM67 (mouse) (UniProt Q505D9).
T1 sequence: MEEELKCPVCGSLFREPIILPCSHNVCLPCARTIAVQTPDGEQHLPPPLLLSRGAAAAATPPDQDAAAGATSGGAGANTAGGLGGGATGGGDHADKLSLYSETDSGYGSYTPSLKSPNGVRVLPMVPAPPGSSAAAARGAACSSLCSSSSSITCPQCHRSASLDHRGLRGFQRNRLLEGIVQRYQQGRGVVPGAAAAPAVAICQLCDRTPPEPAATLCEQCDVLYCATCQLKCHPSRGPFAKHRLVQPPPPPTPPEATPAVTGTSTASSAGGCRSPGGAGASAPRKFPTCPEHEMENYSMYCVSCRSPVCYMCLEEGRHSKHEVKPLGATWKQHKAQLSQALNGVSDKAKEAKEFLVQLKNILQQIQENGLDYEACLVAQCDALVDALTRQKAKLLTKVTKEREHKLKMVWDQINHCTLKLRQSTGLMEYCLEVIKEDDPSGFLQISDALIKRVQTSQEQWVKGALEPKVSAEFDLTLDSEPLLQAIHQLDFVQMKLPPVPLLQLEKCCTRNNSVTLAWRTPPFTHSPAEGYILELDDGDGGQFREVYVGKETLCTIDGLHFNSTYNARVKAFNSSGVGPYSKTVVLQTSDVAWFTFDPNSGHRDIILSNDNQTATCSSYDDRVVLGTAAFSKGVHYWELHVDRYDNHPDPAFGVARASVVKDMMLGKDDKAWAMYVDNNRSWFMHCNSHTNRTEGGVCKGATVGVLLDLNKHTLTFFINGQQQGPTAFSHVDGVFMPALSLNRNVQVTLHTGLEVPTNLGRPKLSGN
The test can be described thus: co-IP.

B1: GFP-EVL (protein, UniProt P70429 1-414)
chain: MSEQSICQARASVMVYDDTSKKWVPIKPGQQGFSRINIYHNTASSTFRVVGVKLQDQQVVINYSIVKGLKYNQATPTFHQWRDARQVYGLNFASKEEATTFSNAMLFALNIMNSQEGGPSTQRQVQNGPSPEEMDIQRRQVMEQQHRQESLERRISATGPILPPGHPSSAASTTLSCSGPPPPPPPPVPPPPTGSTPPPPPPLPAGGAQGTNHDESSASGLAAALAGAKLRRVQRPEDASGGSSPSGTSKSDANRASSGGGGGGLMEEMNKLLAKRRKAASQTDKPADRKEDESQTEDPSTSPSPGTRATSQPPNSSEAGRKPWERSNSVEKPVSSLLSRTPSVAKSPEAKSPLQSQPHSRVKPAGSVNDVGLDALDLDRMKQEILEEVVRELHKVKEEIIDAIRQELSGISTT
For B1, the binding result is on record as “binds”.
